Assay results published in the supplement of paper PMC10077471.
In all, about 1,900 compounds were measured (“excess over highest single agent (ExcessHSA) synergy score, 6x6 matrix”: median about -83, lowest 2% from about -370 on). Some of the results follow.

test system: NCI-H446; assay: excess over highest single agent (ExcessHSA) synergy score, 6x6 matrix; higher = less synergy (more negative = stronger synergy); details: 72 h; CellTiter-Glo viability

SMILES	excess over highest single agent
C=CCc1cccc(/C=N/NC(=O)CN2CCN(Cc3ccccc3)CC2)c1O + Cc1sc2c(c1C)C(c1ccc(Cl)cc1)=N[C@@H](CC(=O)OC(C)(C)C)c1nnc(C)n1-2 [NCGC00250412-19]	0.41
O=C(Nc1cccc(C(F)(F)F)c1)Nc1cc(S(=O)(=O)NC2CC2)ccc1-c1ccsc1 + Cc1sc2c(c1C)C(c1ccc(Cl)cc1)=N[C@@H](CC(=O)OC(C)(C)C)c1nnc(C)n1-2 [NCGC00250412-19]	-216
O=C1c2c(O)cccc2C([C@@H]2O[C@H](CO)[C@@H](O)[C@H](O)[C@H]2O)c2cc(CO)cc(O)c21 (some centres undefined) + Cc1sc2c(c1C)C(c1ccc(Cl)cc1)=N[C@@H](CC(=O)OC(C)(C)C)c1nnc(C)n1-2 [NCGC00250412-19]	-67.8
NC(=O)c1ccc(-c2nc(-c3ccc4c(c3)OCCO4)c(-c3ccccn3)[nH]2)cc1 + Cc1sc2c(c1C)C(c1ccc(Cl)cc1)=N[C@@H](CC(=O)OC(C)(C)C)c1nnc(C)n1-2 [NCGC00250412-19]	109
Nc1nc2[nH]cnc2c(=S)[nH]1 + Cc1sc2c(c1C)C(c1ccc(Cl)cc1)=N[C@@H](CC(=O)OC(C)(C)C)c1nnc(C)n1-2 [NCGC00250412-19]	-51.5
Cc1ccccc1C(=O)Nc1ccc(C(=O)N2CCCC(O)c3cc(Cl)ccc32)c(C)c1 (centres undefined) + Cc1sc2c(c1C)C(c1ccc(Cl)cc1)=N[C@@H](CC(=O)OC(C)(C)C)c1nnc(C)n1-2 [NCGC00250412-19]	-36.8
CN(C)C(=O)C(CCN1CCC(O)(c2ccc(Cl)cc2)CC1)(c1ccccc1)c1ccccc1 + Cc1sc2c(c1C)C(c1ccc(Cl)cc1)=N[C@@H](CC(=O)OC(C)(C)C)c1nnc(C)n1-2 [NCGC00250412-19]	-136
COc1cc(C[C@@H](CO)[C@H](CO)Cc2ccc(O)c(OC)c2)ccc1O + Cc1sc2c(c1C)C(c1ccc(Cl)cc1)=N[C@@H](CC(=O)OC(C)(C)C)c1nnc(C)n1-2 [NCGC00250412-19]	-58.8
COc1cc(C(=O)NC2CCN(C)CC2)ccc1Nc1ncc2c(n1)N(C1CCCC1)CCC(=O)N2C(C)C + Cc1sc2c(c1C)C(c1ccc(Cl)cc1)=N[C@@H](CC(=O)OC(C)(C)C)c1nnc(C)n1-2 [NCGC00250412-19]	-126
CCN(CC)CCNC(=O)c1c(C)[nH]c(/C=C2\C(=O)Nc3ccc(F)cc32)c1C + Cc1sc2c(c1C)C(c1ccc(Cl)cc1)=N[C@@H](CC(=O)OC(C)(C)C)c1nnc(C)n1-2 [NCGC00250412-19]	-148
COc1ccc(/C=C/C(=O)Nc2ccccc2C(=O)O)cc1OC + Cc1sc2c(c1C)C(c1ccc(Cl)cc1)=N[C@@H](CC(=O)OC(C)(C)C)c1nnc(C)n1-2 [NCGC00250412-19]	-177
Oc1ccc(/C=C/c2cc(O)cc(O)c2)cc1 + Cc1sc2c(c1C)C(c1ccc(Cl)cc1)=N[C@@H](CC(=O)OC(C)(C)C)c1nnc(C)n1-2 [NCGC00250412-19]	-81.7
C=C1C(=O)[C@]23[C@H](O)[C@H]1CC[C@H]2[C@@]12CO[C@]3(O)[C@@H](O)[C@@H]1C(C)(C)CC[C@@H]2O + Cc1sc2c(c1C)C(c1ccc(Cl)cc1)=N[C@@H](CC(=O)OC(C)(C)C)c1nnc(C)n1-2 [NCGC00250412-19]	-378
NC(=O)c1ccc2[nH]ccc2c1 + Cc1sc2c(c1C)C(c1ccc(Cl)cc1)=N[C@@H](CC(=O)OC(C)(C)C)c1nnc(C)n1-2 [NCGC00250412-19]	-135
CCOc1cc2ncc(C#N)c(Nc3ccc(F)c(Cl)c3)c2cc1NC(=O)/C=C/CN(C)C + Cc1sc2c(c1C)C(c1ccc(Cl)cc1)=N[C@@H](CC(=O)OC(C)(C)C)c1nnc(C)n1-2 [NCGC00250412-19]	-127
CC[C@]1(O)C[C@H]2CN(CCc3c([nH]c4ccccc34)[C@@](C(=O)OC)(c3cc4c(cc3OC)N(C=O)[C@H]3[C@@](O)(C(=O)OC)[C@H](OC(C)=O)[C@]5(CC)C=CCN6CC[C@]43[C@@H]65)C2)C1 + Cc1sc2c(c1C)C(c1ccc(Cl)cc1)=N[C@@H](CC(=O)OC(C)(C)C)c1nnc(C)n1-2 [NCGC00250412-19]	-144
CCOc1ccc(Nc2nc(-c3c(C)nc4ccccn34)cs2)cc1 + Cc1sc2c(c1C)C(c1ccc(Cl)cc1)=N[C@@H](CC(=O)OC(C)(C)C)c1nnc(C)n1-2 [NCGC00250412-19]	-146
Cc1c[nH]c(C=C2C(=O)Nc3ccccc32)c1CCC(=O)O + Cc1sc2c(c1C)C(c1ccc(Cl)cc1)=N[C@@H](CC(=O)OC(C)(C)C)c1nnc(C)n1-2 [NCGC00250412-19]	66.3
CN[C@@H](C)C(=O)N[C@H]1CN(C(=O)CC(C)C)CC[C@H]2CC[C@@H](C(=O)NC(c3ccccc3)c3ccccc3)N2C1=O + Cc1sc2c(c1C)C(c1ccc(Cl)cc1)=N[C@@H](CC(=O)OC(C)(C)C)c1nnc(C)n1-2 [NCGC00250412-19]	-114
CN1[C@@H]2CC[C@H]1C[C@@H](OC(=O)c1c[nH]c3ccccc13)C2 + Cc1sc2c(c1C)C(c1ccc(Cl)cc1)=N[C@@H](CC(=O)OC(C)(C)C)c1nnc(C)n1-2 [NCGC00250412-19]	-10.6
COc1ccc(-c2c(-c3ccc(O)cc3O)n[nH]c2C)cc1 + Cc1sc2c(c1C)C(c1ccc(Cl)cc1)=N[C@@H](CC(=O)OC(C)(C)C)c1nnc(C)n1-2 [NCGC00250412-19]	40.9
Nc1ccn([C@H]2CC[C@@H](CO)O2)c(=O)n1 + Cc1sc2c(c1C)C(c1ccc(Cl)cc1)=N[C@@H](CC(=O)OC(C)(C)C)c1nnc(C)n1-2 [NCGC00250412-19]	-88.7
CCc1cc(Nc2nccc(-c3c(-c4ccc(OC)c(C(=O)Nc5c(F)cccc5F)c4)nc4ccccn34)n2)c(OC)cc1N1CCC(N2CCN(S(C)(=O)=O)CC2)CC1 + Cc1sc2c(c1C)C(c1ccc(Cl)cc1)=N[C@@H](CC(=O)OC(C)(C)C)c1nnc(C)n1-2 [NCGC00250412-19]	-94.4
CNC(=O)c1cccc(-c2ccc3c(N4CCOC[C@@H]4C)nc(N4CCOC[C@@H]4C)nc3n2)c1 + Cc1sc2c(c1C)C(c1ccc(Cl)cc1)=N[C@@H](CC(=O)OC(C)(C)C)c1nnc(C)n1-2 [NCGC00250412-19]	-175

Single values from the list:
NC(=O)c1ccc(-c2nc(-c3ccc4c(c3)OCCO4)c(-c3ccccn3)[nH]2)cc1 + Cc1sc2c(c1C)C(c1ccc(Cl)cc1)=N[C@@H](CC(=O)OC(C)(C)C)c1nnc(C)n1-2 [NCGC00250412-19] | excess over highest single agent: 109
CCc1cc(Nc2nccc(-c3c(-c4ccc(OC)c(C(=O)Nc5c(F)cccc5F)c4)nc4ccccn34)n2)c(OC)cc1N1CCC(N2CCN(S(C)(=O)=O)CC2)CC1 + Cc1sc2c(c1C)C(c1ccc(Cl)cc1)=N[C@@H](CC(=O)OC(C)(C)C)c1nnc(C)n1-2 [NCGC00250412-19] | excess over highest single agent: -94.4
